Results from article doi:10.1101/726935.
Results are given in words; binding and its absence hold for the method and conditions named. Binding seen in cells or lysates may run through a third protein. Some entries that bind do so weakly or less than the wild type.

Tests used:
[1] = target: HA-L_(1-505) (amino terminus of the Ebola virus RNA-dependent RNA polymerase L) (Ebola virus (EBOV)) (UniProt Q05318); assay: co-IP
[2] = target: FLAG-VP35-WT (Ebola virus virion protein 35) (Ebola virus (EBOV)) (UniProt Q05127); assay: co-IP

Substance	binding [1]	binding [2]
FLAG-VP35-WT (Ebola virus virion protein 35) (from UniProt Q05127 1-340)	binds	–
HA-VP35-WT (Ebola virus virion protein 35) (from UniProt Q05127 1-340)	–	binds
